PubChem BioAssay AID504764 – Drosophila RNAi Screening Center, 2011
Screen: 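Genome-wide screen for regulators of Notch-driven gene expression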 (primary screen). System: Drosophila Kc167 cells. Reagents: long dsRNA against Drosophila genes. Time to read-out: about 5 days (4 days dsRNA, then 24 h after transfection). Challenge: transfection of constitutively active membrane-tethered Notch lacking the extracellular domain, read 24 h later. Read-out: 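Firefly luciferase from an E(spl)m3 reporter with active Notch, plus control-promoter and uninduced reporter wells for normalisation; unnormalised counts, duplicate wells a and b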. Reading the numbers: induced reporter light, run 1, well a and induced reporter light, run 1, well b: higher = more light from the Notch target reporter with active Notch; control promoter light, run 1, well a and control promoter light, run 1, well b: higher = more light from the viral control promoter (cell number, transfection, viability); uninduced reporter light, run 1, well a: higher = more light from the Notch target reporter without active Notch. Active means: 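Hit if the duplicate-averaged log2 ratio of induced to control-promoter light gives a plate-wise z beyond ±2, or induced to uninduced beyond ±1.8; weak-control or discordant-duplicate wells dropped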. Calls: active = modifier hit (raised or lowered Notch signal); inactive = not a hit.
In all, the deposit lists about 22,000 reagents; this is an unselected part of those with a known target gene and a result. In the full data, 403 (1.9%) are marked active. 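Unnormalised raw counts per well; ratio z-scores behind the hit calls and whether each hit raises or lowers signal are not deposited.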 A plus sign joins genes that one reagent is predicted to hit. Not stated in the record: the amount of reagent.

no.	target gene	DRSC id	induced reporter light, run 1, well a	induced reporter light, run 1, well b	control promoter light, run 1, well a	control promoter light, run 1, well b	uninduced reporter light, run 1, well a	Outcome
1	CG30008 (GeneID 246388)	DRSC21576						inactive
2	Rpn10 (GeneID 40388)	DRSC11876	1.22e5	85120	93455	78165	7920	inactive
3	htk (GeneID 32877)	DRSC20029	1.29e5	1.48e5	78300	81645	12205	active
4	htk (GeneID 32877)	DRSC20031	1.15e5	1.38e5	92530	53700	8550	inactive
5	mTor (GeneID 47396)	DRSC02811	55815	73810	50375	56690	4975	inactive
6	CG5498 (GeneID 40250)	DRSC11608	90925	96465	64795	96480	8515	inactive
7	qkr54B (GeneID 36966)	DRSC07670	93450	96950	1.05e5	1.14e5	8345	inactive
8	comr (GeneID 37492)	DRSC04138	37335	30120	33050	31370	2205	inactive
9	Cdep (GeneID 40608)	DRSC12028	1.74e5	1.96e5	2.02e5	2.23e5	18870	inactive
10	Cdep (GeneID 40608)	DRSC12220	1.54e5	1.79e5	1.02e5	1.04e5	10120	inactive
11	Cdep (GeneID 40608)	DRSC12291	1.39e5	1.20e5	1.18e5	84165	12155	inactive
12	CG14195 (GeneID 32911)	DRSC19550	73380	77760	99695	1.04e5	10992	inactive
13	Cap-D3 (GeneID 33778)	DRSC02349	1.95e5	2.06e5	2.31e5	2.23e5	9640	inactive
14	CG1909 (GeneID 43800)	DRSC17150	2.56e5	1.98e5	3.20e5	3.82e5	17155	inactive
15	Or63a (GeneID 38354)	DRSC08681	1.16e5	1.09e5	1.76e5	1.70e5	7395	inactive
16	CG5550 (GeneID 36883)	DRSC06943	89520	97375	1.57e5	2.14e5	9725	inactive
17	yellow-g (GeneID 38294)	DRSC08575	96635	1.05e5	1.34e5	1.50e5	4385	inactive
18	SF2 (GeneID 53443)	DRSC16845	84330	75455	51510	52130	7278	inactive
19	CG5828 (GeneID 33742)	DRSC02900	1.63e5	1.38e5	1.96e5	1.94e5	8360	inactive
20	fok (GeneID 44380)	DRSC02103	64765	58650	62770	96295	4355	inactive
21	bdwf (GeneID 42057)	DRSC15532	87630	90280	83275	75985	8960	inactive
22	Sap47 (GeneID 41938)	DRSC16850	2.50e5	2.88e5	3.80e5	4.30e5	17305	active
23	dpr20 (GeneID 38101)	DRSC08265	79260	77305	1.41e5	1.82e5	8405	inactive
24	CG5946 (GeneID 39336)	DRSC10560	1.03e5	1.24e5	1.66e5	1.25e5	6740	inactive
25	CG1236 (GeneID 40708)	DRSC12203	1.47e5	1.42e5	1.52e5	1.12e5	11015	inactive
26	Ance (GeneID 34805)	DRSC01865	2.12e5	2.10e5	2.11e5	2.20e5	17355	inactive
27	CG6685 (GeneID 39172)	DRSC10695	1.18e5	75700	94810	1.06e5	3705	inactive
28	CG15369 (GeneID 31862)	DRSC18041	1.14e5	1.20e5	1.52e5	1.54e5	7528	inactive
29	CG13545 (GeneID 37675)	DRSC04187	2.04e5	1.99e5	1.44e5	1.69e5	14275	inactive
30	Grasp65 (GeneID 40177)	DRSC10917	1.46e5	98385	94270	83225	11335	inactive
31	CG6996 (GeneID 40212)	DRSC10758	1.50e5	1.06e5	99180	98775	7820	inactive
32	CG12942 (GeneID 36158)	DRSC06253	1.75e5	1.53e5	1.67e5	1.63e5	15250	inactive
33	ptc (GeneID 35851)	DRSC05117	21135	28960	38110	48165	2230	inactive
34	ptc (GeneID 35851)	DRSC07669	1.80e5	2.09e5	2.19e5	2.29e5	16260	inactive
35	CG10694 (GeneID 42855)	DRSC14263	1.54e5	1.42e5	2.08e5	1.83e5	13360	inactive
36	CG2961 (GeneID 31954)	DRSC18246	89185	99165	1.84e5	1.40e5	5740	inactive
37	CG15484 (GeneID 34682)	DRSC02494	1.66e5	1.84e5	1.69e5	1.78e5	14145	inactive
38	CG15484 (GeneID 34682)	DRSC22836						inactive
39	snoRNA:Me28S-A982b + Uhg4 + snoRNA:Me28S-G3255a + 1 more	DRSC05143	35190	41175	45290	47230	2020	inactive
40	CG17648 (GeneID 33357)	DRSC00508	1.26e5	1.33e5	1.04e5	90985	9990	inactive
41	Ak1 (GeneID 39396)	DRSC10248	1.73e5	1.64e5	2.63e5	1.72e5	7228	inactive
42	comm (GeneID 39717)	DRSC11336	2.84e5	2.36e5	3.89e5	2.99e5	10480	inactive
43	ph-p (GeneID 31181)	DRSC18820	92225	1.09e5	1.65e5	2.13e5	7392	inactive
44	Tektin-C (GeneID 38653)	DRSC09741	1.59e5	1.50e5	2.15e5	1.95e5	8055	inactive
45	CG42375 + CG9288	DRSC16468	1.96e5	2.14e5	1.32e5	1.45e5	13140	inactive
46	CG42564 (GeneID 40788)	DRSC12518	91115	94095	98815	63545	8325	inactive
47	Pbgs (GeneID 39402)	DRSC09718	57440	48675	81175	61835	3720	inactive
48	sala (GeneID 34570)	DRSC03605	1.03e5	1.26e5	68615	77390	15290	inactive
49	cmb (GeneID 39513)	DRSC09790	82510	71430	98610	1.03e5	4630	inactive
50	CG6282 (GeneID 38985)	DRSC10616	97560	94200	71570	31025	9430	inactive
51	Cyp9h1 (GeneID 36412)	DRSC07391	91040	93350	1.11e5	97860	8125	inactive
52	Blm (GeneID 41366)	DRSC16911	2.19e5	1.48e5	1.23e5	1.54e5	11480	inactive
53	CG6426 (GeneID 36891)	DRSC06985	1.24e5	82990	1.14e5	1.26e5	7220	inactive
54	CG11122 (GeneID 32046)	DRSC19382	1.44e5	1.62e5	2.18e5	2.04e5	11190	inactive
55	Sema5c (GeneID 37066)	DRSC11279	50345	50035	62005	80550	2775	inactive
56	CG18744 (GeneID 59140)	DRSC15381	82755	70635	91045	70430	4932	inactive
57	FeCH (GeneID 43757)	DRSC16948	2.00e5	2.13e5	2.42e5	2.27e5	13160	inactive
58	Rift (GeneID 43756)	DRSC14330	1.40e5	1.34e5	2.27e5	1.73e5	8705	inactive
59	CG18273 (GeneID 30991)	DRSC18150	1.63e5	1.35e5	2.35e5	2.33e5	12365	inactive
60	CG18273 (GeneID 30991)	DRSC18505	1.98e5	1.93e5	2.26e5	2.90e5	13805	inactive
61	CG6184 (GeneID 42345)	DRSC15986	1.81e5	1.30e5	1.79e5	2.02e5	12940	inactive
62	Obp93a (GeneID 42506)	DRSC15220	2.30e5	1.78e5	1.95e5	2.03e5	15310	inactive
63	Or10a (GeneID 32086)	DRSC20264	1.12e5	1.16e5	1.58e5	2.15e5	8815	inactive
64	CG9270 (GeneID 35366)	DRSC03182	2.29e5	2.01e5	1.36e5	1.37e5	12805	inactive

In a second layout: results already given
{"target gene": "Sap47 (GeneID 41938)", "DRSC id": "DRSC16850", "induced reporter light, run 1, well a": 2.50e5, "induced reporter light, run 1, well b": 2.88e5, "control promoter light, run 1, well a": 3.80e5, "control promoter light, run 1, well b": 4.30e5, "uninduced reporter light, run 1, well a": 17305, "Outcome": "active"}
{"target gene": "dpr20 (GeneID 38101)", "DRSC id": "DRSC08265", "induced reporter light, run 1, well a": 79260, "induced reporter light, run 1, well b": 77305, "control promoter light, run 1, well a": 1.41e5, "control promoter light, run 1, well b": 1.82e5, "uninduced reporter light, run 1, well a": 8405, "Outcome": "inactive"}
{"target gene": "CG5946 (GeneID 39336)", "DRSC id": "DRSC10560", "induced reporter light, run 1, well a": 1.03e5, "induced reporter light, run 1, well b": 1.24e5, "control promoter light, run 1, well a": 1.66e5, "control promoter light, run 1, well b": 1.25e5, "uninduced reporter light, run 1, well a": 6740, "Outcome": "inactive"}
{"target gene": "CG1236 (GeneID 40708)", "DRSC id": "DRSC12203", "induced reporter light, run 1, well a": 1.47e5, "induced reporter light, run 1, well b": 1.42e5, "control promoter light, run 1, well a": 1.52e5, "control promoter light, run 1, well b": 1.12e5, "uninduced reporter light, run 1, well a": 11015, "Outcome": "inactive"}
{"target gene": "Ance (GeneID 34805)", "DRSC id": "DRSC01865", "induced reporter light, run 1, well a": 2.12e5, "induced reporter light, run 1, well b": 2.10e5, "control promoter light, run 1, well a": 2.11e5, "control promoter light, run 1, well b": 2.20e5, "uninduced reporter light, run 1, well a": 17355, "Outcome": "inactive"}
{"target gene": "CG6685 (GeneID 39172)", "DRSC id": "DRSC10695", "induced reporter light, run 1, well a": 1.18e5, "induced reporter light, run 1, well b": 75700, "control promoter light, run 1, well a": 94810, "control promoter light, run 1, well b": 1.06e5, "uninduced reporter light, run 1, well a": 3705, "Outcome": "inactive"}
{"target gene": "CG15369 (GeneID 31862)", "DRSC id": "DRSC18041", "induced reporter light, run 1, well a": 1.14e5, "induced reporter light, run 1, well b": 1.20e5, "control promoter light, run 1, well a": 1.52e5, "control promoter light, run 1, well b": 1.54e5, "uninduced reporter light, run 1, well a": 7528, "Outcome": "inactive"}
